Experimental data published in the supplement of paper PMC12067093, “Discovery and optimisation of a covalent ligand for TRIM25 and its application to targeted protein ubiquitination” (Chemical Science, 2025).
The list shows a part of the results.

The targets below were run with Cc1cc(ccc1-c1ccccc1)C(=O)N1CCCN(CC1)C(=O)CCl [compound 10] (assay: probe-labelled cysteine peptide fold change vs DMSO (competition) (log2 fold change); higher = less target engagement (more negative = stronger competition)). Details: 10 µM; THP-1; incubation time: 4 h.
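Note: competitive profiling in live THP-1 cells: cysteine peptides tagged with an iodoacetamide desthiobiotin (IA-DTB) probe, intensity after compound treatment relative to DMSO-treated cells.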

Target | probe-labelled cysteine peptide fold change
DCAF15_Q66K64_211_AHPGDPNAQCLR (UniProt Q66K64) | 0.0803
CYB5R3_P00387_284_DHLPPPEEEPLVLMCGPPPMIQYACLPNLDHVGHPTER (UniProt P00387) | 0.38
DCAF10_Q5QP82_102_RPGPDCR (UniProt Q5QP82) | -0.255
CTSL_P07711_322_NHCGIASAASYPTV (UniProt P07711) | -0.179
CYC1_P08574_219_HGGEDYVFSLLTGYCEPPTGVSLR (UniProt P08574) | 0.265
DBNL_Q9UJU6-3_256_NEQGSTCASLQESAVHPR (UniProt Q9UJU6) | -0.341
DCAF4_Q8WV16_88_LLPGHNNCNPLTK (UniProt Q8WV16) | -0.132
CYB5R1_Q9UHQ9_288_EHLPAPGDDVLVLLCGPPPMVQLACHPNLDK (UniProt Q9UHQ9) | -0.00877
DCPS_Q96C86_307_AHLLAEVIENLECDPR (UniProt Q96C86) | -0.0605
DCP2_Q8IU60_391_KLQDNFETDAVYDLPSSSEDQLLEHAEGQPVACNGHCK (UniProt Q8IU60) | -0.353
CUL3_Q13618_462+464_LKTECGCQFTSK (UniProt Q13618) | -0.0794
DDAH1_O94760_222_LTVPDDIAANCIYLNIPNK (UniProt O94760) | 0.216
CUL4B_Q13620_730_KLQWQSTLGHCVLK (UniProt Q13620) | 0.0433
DCAF10_Q5QP82_412_NSLEVVTPEVLGESDHGNCITSLQLHPK (UniProt Q5QP82) | 0.0465
CTSO_P43234_204_AQNGLCHYFSGSHSGFSIK (UniProt P43234) | 0.165
CXorf38_Q8TB03_133_QGPEECDAVALLSLINSCDHFVVDR (UniProt Q8TB03) | 0.0726
CUL5_Q93034_51_QQWFDLFSDVHAVCLWDDKGPAK (UniProt Q93034) | -0.119
DBN1_Q16643_96_CACASHVAK (UniProt Q16643) | -0.0825

Target | probe-labelled cysteine peptide fold change
DBT_P11182_99_EGDTVSQFDSICEVQSDK (UniProt P11182) | -0.0362
DDB1_Q16531_128_IGRPSETGIIGIIDPECR (UniProt Q16531) | 0.108
DCAF8_Q5TAQ9_195_LQHGLEGHTGCVNTLHFNQR (UniProt Q5TAQ9) | -0.272
CTSC_P53634_331_YAQDFGLVEEACFPYTGTDSPCK (UniProt P53634) | 0.15
DARS2_Q6PI48_202_MREYLCNLHGFVDIETPTLFK (UniProt Q6PI48) | 0.000167
DCAF13_Q9NV06_71_DGVNCLAK (UniProt Q9NV06) | -0.188
CYBB_P04839_537_IGVFLCGPEALAETLSK (UniProt P04839) | 0.0485
CUL1_Q13616_291_CEQVLIEK (UniProt Q13616) | 0.0321
CTSB_P07858_319_GQDHCGIESEVVAGIPR (UniProt P07858) | -0.0753
DCAF12L1_Q5VU92_117_CNTLFVVDVESGHIAR (UniProt Q5VU92) | 0.017
CXorf38_Q8TB03_300_LDSLCLHQK (UniProt Q8TB03) | -0.0363
DARS_P14868_349_FLEPTLRLEYCEALAMLR (UniProt P14868) | -0.183
DAXX_Q9UER7_720_LSQTPHSQPPRPGTCK (UniProt Q9UER7) | -0.415
DCPS_Q96C86_37_EAGVGNGTCAPVR (UniProt Q96C86) | -0.318
DCTN1_Q14203_791_DLETSCSDIR (UniProt Q14203) | -0.0273
CYFIP1_Q7L576_428_DCPDSAEEYER (UniProt Q7L576) | -0.13
DARS_P14868_349_LEYCEALAMLR (UniProt P14868) | 0.204
CUL2_Q13617_103_GADYMDCLYR (UniProt Q13617) | 0.162

Same assay, conditions: 50 µM; THP-1; incubation time: 4 h

Target | probe-labelled cysteine peptide fold change
DCAF15_Q66K64_211_AHPGDPNAQCLR (UniProt Q66K64) | 0.174
CYB5R3_P00387_284_DHLPPPEEEPLVLMCGPPPMIQYACLPNLDHVGHPTER (UniProt P00387) | 0.0265
DCAF10_Q5QP82_102_RPGPDCR (UniProt Q5QP82) | -0.267
CTSL_P07711_322_NHCGIASAASYPTV (UniProt P07711) | -0.234
CYC1_P08574_219_HGGEDYVFSLLTGYCEPPTGVSLR (UniProt P08574) | 0.31
DBNL_Q9UJU6-3_256_NEQGSTCASLQESAVHPR (UniProt Q9UJU6) | -0.167
DCAF4_Q8WV16_88_LLPGHNNCNPLTK (UniProt Q8WV16) | -0.353
CYB5R1_Q9UHQ9_288_EHLPAPGDDVLVLLCGPPPMVQLACHPNLDK (UniProt Q9UHQ9) | -0.297
DCPS_Q96C86_307_AHLLAEVIENLECDPR (UniProt Q96C86) | -0.0923
DCP2_Q8IU60_391_KLQDNFETDAVYDLPSSSEDQLLEHAEGQPVACNGHCK (UniProt Q8IU60) | -1.7
CUL3_Q13618_462+464_LKTECGCQFTSK (UniProt Q13618) | -1.31
DDAH1_O94760_222_LTVPDDIAANCIYLNIPNK (UniProt O94760) | -0.124
CUL4B_Q13620_730_KLQWQSTLGHCVLK (UniProt Q13620) | 0.161
DCAF10_Q5QP82_412_NSLEVVTPEVLGESDHGNCITSLQLHPK (UniProt Q5QP82) | -0.177
CTSO_P43234_204_AQNGLCHYFSGSHSGFSIK (UniProt P43234) | 0.0208
CXorf38_Q8TB03_133_QGPEECDAVALLSLINSCDHFVVDR (UniProt Q8TB03) | -0.137
CUL5_Q93034_51_QQWFDLFSDVHAVCLWDDKGPAK (UniProt Q93034) | -0.574
DBN1_Q16643_96_CACASHVAK (UniProt Q16643) | -0.573

Target | probe-labelled cysteine peptide fold change
DBT_P11182_99_EGDTVSQFDSICEVQSDK (UniProt P11182) | 0.32
DDB1_Q16531_128_IGRPSETGIIGIIDPECR (UniProt Q16531) | 0.145
DCAF8_Q5TAQ9_195_LQHGLEGHTGCVNTLHFNQR (UniProt Q5TAQ9) | -0.126
CTSC_P53634_331_YAQDFGLVEEACFPYTGTDSPCK (UniProt P53634) | 0.322
DARS2_Q6PI48_202_MREYLCNLHGFVDIETPTLFK (UniProt Q6PI48) | 0.144
DCAF13_Q9NV06_71_DGVNCLAK (UniProt Q9NV06) | -0.0754
CYBB_P04839_537_IGVFLCGPEALAETLSK (UniProt P04839) | 0.104
CUL1_Q13616_291_CEQVLIEK (UniProt Q13616) | 0.168
CTSB_P07858_319_GQDHCGIESEVVAGIPR (UniProt P07858) | -0.0436
DCAF12L1_Q5VU92_117_CNTLFVVDVESGHIAR (UniProt Q5VU92) | 0.105
CXorf38_Q8TB03_300_LDSLCLHQK (UniProt Q8TB03) | -0.25
DARS_P14868_349_FLEPTLRLEYCEALAMLR (UniProt P14868) | -0.703
DAXX_Q9UER7_720_LSQTPHSQPPRPGTCK (UniProt Q9UER7) | -0.341
DCPS_Q96C86_37_EAGVGNGTCAPVR (UniProt Q96C86) | -0.204
DCTN1_Q14203_791_DLETSCSDIR (UniProt Q14203) | 0.0341
CYFIP1_Q7L576_428_DCPDSAEEYER (UniProt Q7L576) | 0.212
DARS_P14868_349_LEYCEALAMLR (UniProt P14868) | 0.208
CUL2_Q13617_103_GADYMDCLYR (UniProt Q13617) | 0.199
